This is an account of results in PMC7044199.

Protein sequences, listed by entry. Tags and fused reporters are not part of them.
UniProt P19474: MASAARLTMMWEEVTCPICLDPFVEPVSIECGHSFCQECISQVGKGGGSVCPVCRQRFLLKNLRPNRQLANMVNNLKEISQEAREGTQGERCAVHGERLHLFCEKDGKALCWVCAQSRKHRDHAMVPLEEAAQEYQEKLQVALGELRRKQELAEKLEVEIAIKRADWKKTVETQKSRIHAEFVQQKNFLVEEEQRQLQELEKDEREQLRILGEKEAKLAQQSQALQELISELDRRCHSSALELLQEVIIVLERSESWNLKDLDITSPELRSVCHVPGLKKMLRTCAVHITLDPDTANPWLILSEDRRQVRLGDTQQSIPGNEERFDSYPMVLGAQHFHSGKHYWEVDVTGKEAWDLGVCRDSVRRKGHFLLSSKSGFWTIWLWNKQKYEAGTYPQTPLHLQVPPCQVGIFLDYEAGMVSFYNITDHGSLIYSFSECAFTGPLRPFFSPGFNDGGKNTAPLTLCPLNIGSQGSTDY

These are yes or no findings as the source states them, for the method shown. In cells and extracts the contact can be indirect. Some binding calls cover weakened binding; strength is not graded here. For part of these data: Tags and fused reporters may be left off the sequences shown.

Assay [1] has as its target T1, FLAG-SET7/9 (UniProt Q8WTS6).
T1 sequence: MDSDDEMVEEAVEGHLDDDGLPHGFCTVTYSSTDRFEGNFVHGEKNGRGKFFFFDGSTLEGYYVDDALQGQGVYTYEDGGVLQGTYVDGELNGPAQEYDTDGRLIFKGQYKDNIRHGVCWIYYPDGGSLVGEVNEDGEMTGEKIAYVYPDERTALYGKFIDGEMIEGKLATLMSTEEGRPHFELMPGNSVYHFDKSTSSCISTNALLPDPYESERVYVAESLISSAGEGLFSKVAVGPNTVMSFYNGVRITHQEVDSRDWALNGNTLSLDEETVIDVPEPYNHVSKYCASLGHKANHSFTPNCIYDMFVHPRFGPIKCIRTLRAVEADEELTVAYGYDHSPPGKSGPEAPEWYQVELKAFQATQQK
Briefly: co-IP; column-bound proteins of the anti-FLAG purification from MCF-7 cells expressing FLAG-SET7/9, western blot with antibodies against TRIM21.

The target of assay [2] is T2, SET7/9, endogenous (human (endogenous in MCF-7, T-47D, MDA-MB-231, MCF-10A)) (UniProt Q8WTS6).
T2 sequence: T1 sequence
The experiment in a line: co-IP; endogenous proteins in lysates of MCF-7, T-47D, MDA-MB-231 and MCF-10A cells; lysis buffer 50 mM Tris-HCl pH 8.0, 0.5% NP40, 150 mM NaCl, 1 mM EDTA, 0.5% sodium deoxycholate; 3 ug antibody overnight at 4 C, protein A/G Sepharose; IP with SET7/9 antibodies and the reciprocal IP with TRIM21 ….

The target of assay [3] is T3, GST-SET7/9 (UniProt Q8WTS6).
T3 sequence: T1 sequence
The experiment in a line: pull-down; GST-SET7/9 or its deletion mutants with in vitro-transcribed and translated full-length TRIM21 (rabbit reticulocyte lysate); only the target purified.

“Tripartite motif-containing protein 21 (TRIM21), endogenous (from UniProt P19474 1-475) (enzyme)”: the binding result in assay [1] and in assay [2] was “binds” each time. Turning to “in vitro-transcribed and translated full-length TRIM21 (from UniProt P19474 1-475) (enzyme)”, in assay [3], the binding entry was “binds”.
